Laboratory results reported in the supplement of paper PMC10849652.
Some of the results follow. Residues, ends and D or L forms follow the SMILES beside them. *: point of attachment. Cbz = O=C(OCc1ccccc1)*

Protein sequences, listed by entry. Tags and fused reporters are not part of them. Lines headed by an entry give the natural chain unless they say otherwise; changes in a name come on top.
UniProt Q9BXP2: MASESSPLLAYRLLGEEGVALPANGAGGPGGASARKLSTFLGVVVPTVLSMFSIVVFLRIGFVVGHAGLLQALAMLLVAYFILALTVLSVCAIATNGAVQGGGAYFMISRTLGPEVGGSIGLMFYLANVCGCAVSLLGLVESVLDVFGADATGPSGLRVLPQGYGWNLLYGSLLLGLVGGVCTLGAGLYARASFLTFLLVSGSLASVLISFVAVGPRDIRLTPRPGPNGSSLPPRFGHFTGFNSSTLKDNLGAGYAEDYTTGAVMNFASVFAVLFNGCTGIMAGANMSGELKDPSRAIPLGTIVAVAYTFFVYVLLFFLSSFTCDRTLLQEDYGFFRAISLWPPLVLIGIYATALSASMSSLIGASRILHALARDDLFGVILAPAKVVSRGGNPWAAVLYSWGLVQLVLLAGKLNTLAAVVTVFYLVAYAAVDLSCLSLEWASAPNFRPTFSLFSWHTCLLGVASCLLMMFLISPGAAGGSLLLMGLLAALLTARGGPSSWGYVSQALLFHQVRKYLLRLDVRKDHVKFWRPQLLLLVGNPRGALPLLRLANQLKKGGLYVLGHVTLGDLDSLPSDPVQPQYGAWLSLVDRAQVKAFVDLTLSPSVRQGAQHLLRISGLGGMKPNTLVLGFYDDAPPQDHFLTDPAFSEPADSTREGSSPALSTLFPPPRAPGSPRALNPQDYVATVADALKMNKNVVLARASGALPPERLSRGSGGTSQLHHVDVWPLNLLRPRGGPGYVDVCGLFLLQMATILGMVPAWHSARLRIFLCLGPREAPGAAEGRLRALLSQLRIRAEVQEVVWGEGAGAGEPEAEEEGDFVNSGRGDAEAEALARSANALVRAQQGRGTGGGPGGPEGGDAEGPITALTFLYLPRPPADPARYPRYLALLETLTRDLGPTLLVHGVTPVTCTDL
UniProt Q8N697: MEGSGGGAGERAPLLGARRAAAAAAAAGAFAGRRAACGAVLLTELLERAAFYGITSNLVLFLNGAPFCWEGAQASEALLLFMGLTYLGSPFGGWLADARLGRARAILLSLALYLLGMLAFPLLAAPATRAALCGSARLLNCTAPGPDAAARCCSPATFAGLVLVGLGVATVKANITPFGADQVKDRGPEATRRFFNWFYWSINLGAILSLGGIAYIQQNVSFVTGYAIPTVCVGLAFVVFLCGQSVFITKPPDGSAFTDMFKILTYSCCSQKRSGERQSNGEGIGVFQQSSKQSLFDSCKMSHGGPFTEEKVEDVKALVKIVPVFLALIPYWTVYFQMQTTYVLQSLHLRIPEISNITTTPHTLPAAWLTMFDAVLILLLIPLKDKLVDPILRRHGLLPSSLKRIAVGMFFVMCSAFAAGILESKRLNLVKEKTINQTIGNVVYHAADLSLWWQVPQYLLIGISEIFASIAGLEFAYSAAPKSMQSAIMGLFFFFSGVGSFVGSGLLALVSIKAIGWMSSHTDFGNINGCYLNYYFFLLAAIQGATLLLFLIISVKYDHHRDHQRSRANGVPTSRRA
UniProt Q9BZD2: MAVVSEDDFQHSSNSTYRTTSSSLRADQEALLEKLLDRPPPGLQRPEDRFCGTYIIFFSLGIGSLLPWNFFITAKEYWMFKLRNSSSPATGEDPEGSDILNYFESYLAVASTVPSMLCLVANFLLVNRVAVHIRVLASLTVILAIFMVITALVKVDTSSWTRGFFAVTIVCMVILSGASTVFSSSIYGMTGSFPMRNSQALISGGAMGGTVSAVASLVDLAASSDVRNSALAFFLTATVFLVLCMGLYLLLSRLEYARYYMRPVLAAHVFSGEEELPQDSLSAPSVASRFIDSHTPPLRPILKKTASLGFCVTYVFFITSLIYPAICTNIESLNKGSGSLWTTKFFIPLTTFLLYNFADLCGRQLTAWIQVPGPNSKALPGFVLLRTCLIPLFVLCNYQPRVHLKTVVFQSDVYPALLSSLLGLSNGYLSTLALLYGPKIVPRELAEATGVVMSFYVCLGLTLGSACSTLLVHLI
UniProt Q9Y2D2: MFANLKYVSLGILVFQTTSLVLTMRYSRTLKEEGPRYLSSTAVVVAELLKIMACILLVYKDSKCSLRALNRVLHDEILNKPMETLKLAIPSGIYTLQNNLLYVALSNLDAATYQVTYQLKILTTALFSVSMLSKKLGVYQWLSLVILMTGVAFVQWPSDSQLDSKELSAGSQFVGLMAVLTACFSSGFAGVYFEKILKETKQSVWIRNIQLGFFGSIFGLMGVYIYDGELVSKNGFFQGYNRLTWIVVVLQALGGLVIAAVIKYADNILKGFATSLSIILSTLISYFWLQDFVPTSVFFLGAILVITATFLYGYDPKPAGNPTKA
UniProt Q6P1M0: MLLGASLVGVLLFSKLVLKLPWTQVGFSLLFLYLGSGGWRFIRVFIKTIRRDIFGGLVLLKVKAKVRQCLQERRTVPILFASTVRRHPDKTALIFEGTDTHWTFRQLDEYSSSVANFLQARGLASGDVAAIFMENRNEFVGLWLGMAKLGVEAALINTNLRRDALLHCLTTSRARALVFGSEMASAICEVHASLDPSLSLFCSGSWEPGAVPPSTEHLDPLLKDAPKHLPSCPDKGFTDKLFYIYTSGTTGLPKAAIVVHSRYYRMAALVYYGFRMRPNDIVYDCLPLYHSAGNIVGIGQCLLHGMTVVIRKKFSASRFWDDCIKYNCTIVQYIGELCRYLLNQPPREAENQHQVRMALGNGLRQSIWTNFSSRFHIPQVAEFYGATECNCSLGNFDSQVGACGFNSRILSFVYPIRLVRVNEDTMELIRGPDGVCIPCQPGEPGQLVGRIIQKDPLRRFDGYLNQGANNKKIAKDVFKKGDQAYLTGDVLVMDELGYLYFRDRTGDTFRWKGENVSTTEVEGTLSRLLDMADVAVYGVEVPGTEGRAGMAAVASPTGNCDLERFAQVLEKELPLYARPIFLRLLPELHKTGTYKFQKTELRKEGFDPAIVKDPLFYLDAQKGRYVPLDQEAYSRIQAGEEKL
UniProt Q9H2X9: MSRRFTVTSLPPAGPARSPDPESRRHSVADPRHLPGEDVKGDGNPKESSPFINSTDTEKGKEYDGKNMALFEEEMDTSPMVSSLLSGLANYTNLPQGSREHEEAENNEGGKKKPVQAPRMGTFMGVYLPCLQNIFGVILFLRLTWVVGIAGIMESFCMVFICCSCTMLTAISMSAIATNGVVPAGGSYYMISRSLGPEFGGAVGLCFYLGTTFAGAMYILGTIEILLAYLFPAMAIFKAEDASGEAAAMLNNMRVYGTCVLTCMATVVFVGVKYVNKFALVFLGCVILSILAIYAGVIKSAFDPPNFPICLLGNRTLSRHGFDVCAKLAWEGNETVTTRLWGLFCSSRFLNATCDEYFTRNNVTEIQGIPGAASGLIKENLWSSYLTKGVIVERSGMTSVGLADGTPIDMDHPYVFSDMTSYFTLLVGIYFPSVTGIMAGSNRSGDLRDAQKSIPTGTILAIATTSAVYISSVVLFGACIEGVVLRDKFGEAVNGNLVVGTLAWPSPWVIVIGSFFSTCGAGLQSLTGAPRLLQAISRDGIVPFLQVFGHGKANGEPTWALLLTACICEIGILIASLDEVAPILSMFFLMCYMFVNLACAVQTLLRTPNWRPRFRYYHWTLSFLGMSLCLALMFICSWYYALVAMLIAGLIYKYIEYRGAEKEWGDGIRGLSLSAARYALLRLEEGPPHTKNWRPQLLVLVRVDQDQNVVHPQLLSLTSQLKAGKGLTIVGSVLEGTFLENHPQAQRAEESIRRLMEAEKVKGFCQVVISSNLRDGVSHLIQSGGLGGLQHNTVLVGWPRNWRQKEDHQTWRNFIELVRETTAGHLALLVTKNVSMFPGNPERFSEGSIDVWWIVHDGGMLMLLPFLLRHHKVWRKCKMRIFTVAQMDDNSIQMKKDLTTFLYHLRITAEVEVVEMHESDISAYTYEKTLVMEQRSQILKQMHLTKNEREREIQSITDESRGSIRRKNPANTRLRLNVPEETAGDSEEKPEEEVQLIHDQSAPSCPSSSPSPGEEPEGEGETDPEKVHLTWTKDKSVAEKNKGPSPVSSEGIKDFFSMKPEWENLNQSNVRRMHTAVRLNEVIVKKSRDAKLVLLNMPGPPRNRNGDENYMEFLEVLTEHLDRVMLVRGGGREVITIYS
UniProt Q96CQ1: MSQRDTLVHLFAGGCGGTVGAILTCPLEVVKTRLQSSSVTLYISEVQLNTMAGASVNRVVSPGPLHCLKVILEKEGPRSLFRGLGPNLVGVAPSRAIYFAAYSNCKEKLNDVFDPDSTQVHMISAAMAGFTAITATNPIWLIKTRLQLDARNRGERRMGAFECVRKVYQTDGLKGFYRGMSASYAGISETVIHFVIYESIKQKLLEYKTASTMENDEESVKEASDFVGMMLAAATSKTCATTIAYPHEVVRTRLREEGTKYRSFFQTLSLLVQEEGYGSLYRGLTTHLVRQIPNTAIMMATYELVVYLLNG
UniProt Q96QE2: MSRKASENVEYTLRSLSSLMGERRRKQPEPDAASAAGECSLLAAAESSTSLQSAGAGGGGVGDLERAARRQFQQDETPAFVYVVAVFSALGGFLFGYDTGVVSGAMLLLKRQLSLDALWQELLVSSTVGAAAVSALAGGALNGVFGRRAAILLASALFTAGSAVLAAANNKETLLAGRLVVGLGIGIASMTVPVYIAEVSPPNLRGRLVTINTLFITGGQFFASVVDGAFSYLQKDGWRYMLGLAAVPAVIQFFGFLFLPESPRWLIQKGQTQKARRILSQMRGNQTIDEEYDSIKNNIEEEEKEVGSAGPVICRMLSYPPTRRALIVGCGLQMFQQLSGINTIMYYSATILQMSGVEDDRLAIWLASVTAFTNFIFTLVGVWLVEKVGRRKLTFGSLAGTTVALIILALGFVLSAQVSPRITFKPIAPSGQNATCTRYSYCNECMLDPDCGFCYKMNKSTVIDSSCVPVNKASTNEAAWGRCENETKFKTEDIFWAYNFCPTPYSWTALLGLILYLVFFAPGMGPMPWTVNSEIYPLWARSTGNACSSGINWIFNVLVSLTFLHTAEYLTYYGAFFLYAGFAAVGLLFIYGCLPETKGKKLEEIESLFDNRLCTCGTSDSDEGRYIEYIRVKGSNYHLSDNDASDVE
UniProt O60779: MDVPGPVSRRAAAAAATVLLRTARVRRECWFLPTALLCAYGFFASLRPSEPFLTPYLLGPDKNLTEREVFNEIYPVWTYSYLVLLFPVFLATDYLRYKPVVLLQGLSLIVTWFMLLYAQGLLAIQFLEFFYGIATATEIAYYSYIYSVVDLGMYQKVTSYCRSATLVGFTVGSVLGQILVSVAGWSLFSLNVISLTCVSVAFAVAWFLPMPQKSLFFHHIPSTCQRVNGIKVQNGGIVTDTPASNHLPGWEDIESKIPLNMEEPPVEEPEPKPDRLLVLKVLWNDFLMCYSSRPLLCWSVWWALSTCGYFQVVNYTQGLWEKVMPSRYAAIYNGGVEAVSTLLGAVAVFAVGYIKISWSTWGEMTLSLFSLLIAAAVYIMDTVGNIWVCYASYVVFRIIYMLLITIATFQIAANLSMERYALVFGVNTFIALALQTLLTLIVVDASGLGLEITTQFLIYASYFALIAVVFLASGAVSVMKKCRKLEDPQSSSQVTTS

How the values were obtained:
Experiment in all cases: log2 fold change, soluble protein after heating vs DMSO (PISA); higher = thermal stabilisation; K562 cells, 10 uM, 30 min; active = over 0.2 and 3.5 SD of the protein, either way, in both replicates (recomputed)
erlotinib = compound: C#Cc1cccc(Nc2ncnc3cc(OCCOC)c(OCCOC)cc23)c1 [erlotinib]
Procedure, shortened: (§1)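 K562 cells at 2×10^6 cells/mL were treated with 10 μM compound for 30 min. Aliquots were heated for 3 min across 48°C-58°C, pooled, and extracted in PBS with 0.5% NP-40 at 4°C; soluble protein was the supernatant after 21,000xg for 90 min. Soluble protein was quantified by TMTpro 16plex LC-MS/MS with channel sums equalised, and reported as log2 fold change in thermal stability against DMSO controls, with values from duplicates.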

[1] = compound: C/C(=N\NC(=O)C1=CC(=CC=C1)S(=O)(=O)N2CCOCC2)/C3=C(C=CC(=C3)Cl)O
Procedure, shortened: as §1

[2] = compound: C1=CC(=C(C=C1Cl)C2=NC3=NC=CN=C3C(=N2)NC4=CC=NC=C4)F
Procedure, shortened: as §1

[3] = compound: C1=CC(=CC=C1C2=NC3=C(N2)C=C(C=C3)C(=O)N)OC4=CC=C(C=C4)Cl
Procedure, shortened: as §1

[4] = compound: C1=CC2=C(C=CC(=C2)/C=C\3/C(=O)NC(=NCC4=CC=CS4)S3)N=C1
Procedure, shortened: as §1

[5] = compound: C1=CC2=NC=CN=C2C=C1/C=C/3\C(=O)NC(=O)S3
Procedure, shortened: as §1

[6] = compound: C1=CC=C(C=C1)C2=NC(=C(N2)C3=CC=NC=C3)C4=CC(=C(C=C4)Cl)O
Procedure, shortened: as §1

[7] = compound: C1=CC=C2C(=C1)C3=NNC4=CC=CC(=C43)C2=O
Procedure, shortened: as §1

[8] = compound: C1CCN(C1)C(=O)NC2=CC=CC(=C2)NC3=NC=C(C(=N3)NCCC4=CN=CN4)Br
Procedure, shortened: as §1

[9] = compound: C1CN(CCC1(CC2=CC=C(C=C2)Cl)N)C3=NC=NC4=C3C=CN4
Procedure, shortened: as §1

IRAK-1-4 Inhibitor I = compound: C1COCCN1CCN2C3=CC=CC=C3N=C2NC(=O)C4=CC(=CC=C4)[N+](=O)[O-] [IRAK-1-4 Inhibitor I]
Procedure, shortened: as §1

ibrutinib = compound: C=CC(=O)N1CCC[C@@H](n2nc(-c3ccc(Oc4ccccc4)cc3)c3c(N)ncnc32)C1 [ibrutinib]
Procedure, shortened: as §1

[10] = compound: CC(=O)c1cnc2ccc(-c3cc(Cl)c(O)c(Cl)c3)nc2c1N[C@H]1CC[C@H](CN(C)C)CC1
Procedure, shortened: as §1

ralimetinib = compound: CC(C)(C)Cn1c(N)nc2ccc(-c3[nH]c(C(C)(C)C)nc3-c3ccc(F)cc3)nc21 [ralimetinib]
Procedure, shortened: as §1

[11] = compound: CC(C)(O)CC(=O)NCCn1ccc2ncnc(Nc3ccc(Oc4cccc(C(F)(F)F)c4)c(Cl)c3)c21
Procedure, shortened: as §1

[12] = compound: CC(C)C1=C2N=C(C=C(N2N=C1)NCC3=CC=CC=C3)NCCCCCCN
Procedure, shortened: as §1

[13] = compound: CC(C)C[C@@H](C=O)NC(=O)[C@H](CC(C)C)NC(=O)[C@H](CC(C)C)NC(=O)OCc1ccccc1
Procedure, shortened: as §1

pinometostat = compound: CC(C)N(C[C@H]1O[C@@H](n2cnc3c(N)ncnc32)[C@H](O)[C@@H]1O)[C@H]1C[C@@H](CCc2nc3cc(C(C)(C)C)ccc3[nH]2)C1 [pinometostat]
Procedure, shortened: as §1

[14] = compound: CC1=C(C2=C(C=C1)C(=O)C3=CC=CC=C3N2CCCN)C
Procedure, shortened: as §1

[15] = compound: CC1=C(C(CC(=O)N1)C2=CC=C(C=C2)C(F)(F)F)C(=O)NC3=C(C=C4C(=C3)C=NN4)F
Procedure, shortened: as §1

Target | log2 fold change (erlotinib) | log2 fold change [1] | log2 fold change [2] | log2 fold change [3] | log2 fold change [4] | log2 fold change [5] | log2 fold change [6] | log2 fold change [7] | log2 fold change [8] | log2 fold change [9] | log2 fold change (IRAK-1-4 Inhibitor I) | log2 fold change (ibrutinib) | log2 fold change [10] | log2 fold change (ralimetinib) | log2 fold change [11] | log2 fold change [12] | log2 fold change [13] | log2 fold change (pinometostat) | log2 fold change [14] | log2 fold change [15]
SLC12A9 (UniProt Q9BXP2) | inactive: 0.023 | inactive: 0.03 | inactive: 0.039 | inactive: -0.013 | inactive: -0.04 | inactive: 0.021 | inactive: 0.016 | inactive: -0.015 | inactive: -0.019 | inactive: -0.012 | inactive: 0.112 | inactive: -0.001 | inactive: 0.016 | inactive: -0.106 | inactive: -0.012 | inactive: -0.165 | inactive: 0.033 | inactive: -0.018 | inactive: 0.056 | 
SLC15A4 (UniProt Q8N697) | inactive: -0.036 | inactive: 0.025 |  | inactive: 0.013 | inactive: 0.049 | inactive: -0.084 | inactive: 0.133 | inactive: -0.009 | inactive: 0.021 | inactive: 0.149 | inactive: 0.119 | inactive: -0.066 | inactive: -0.003 | inactive: 0 |  | inactive: -0.087 | inactive: -0.011 | inactive: -0.019 | inactive: 0.016 | inactive: -0.132
SLC29A3 (UniProt Q9BZD2) | inactive: 0.155 | inactive: 0.024 | inactive: 0.028 | inactive: 0.043 | inactive: 0.042 | inactive: 0.098 | inactive: 0.064 | inactive: 0 | inactive: 0.074 | inactive: 0.052 | inactive: 0.01 | inactive: 0.064 | inactive: 0.04 | inactive: -0.025 | inactive: 0.088 | inactive: -0.283 | inactive: 0.011 | inactive: 0.02 | inactive: -0.148 | 
SLC35A3 isoform 2 (UniProt Q9Y2D2) | inactive: 0.002 | inactive: -0.059 | inactive: 0.045 | inactive: -0.031 | inactive: 0.181 | inactive: 0.084 | inactive: 0.196 | inactive: -0.039 |  |  | inactive: 0.014 | inactive: 0.071 | inactive: -0.001 | inactive: 0.435 | inactive: -0.043 | inactive: -0.077 | inactive: -0.277 | inactive: -0.11 |  | inactive: -0.047
SLC27A4 (UniProt Q6P1M0) | inactive: 0.039 | inactive: 0.013 | inactive: -0.023 | inactive: 0.032 | inactive: 0.082 | inactive: -0.02 | inactive: 0.002 | inactive: 0.061 | inactive: -0.017 | inactive: 0.062 | inactive: -0.042 | inactive: 0.022 | inactive: -0.034 | inactive: 0.003 | inactive: 0.072 | inactive: -0.11 | inactive: -0.044 | inactive: 0.039 | inactive: 0.104 | 
SLC12A5 (UniProt Q9H2X9) | inactive: 0.036 | inactive: 0.054 | active: -0.49 | inactive: 0.034 | inactive: 0.098 | inactive: -0.021 |  | inactive: -0.138 | inactive: 0.038 | inactive: 0.103 | inactive: -0.024 | inactive: -0.006 | inactive: -0.101 |  | inactive: 0.14 | inactive: 0.052 |  | inactive: -0.113 | inactive: 0.047 | 
SLC25A36 (UniProt Q96CQ1) | inactive: -0.077 | inactive: 0.008 | inactive: -0.083 | inactive: 0.003 | inactive: 0.031 | inactive: 0.102 | inactive: -0.104 | inactive: -0.034 | inactive: 0.053 | inactive: 0.068 | inactive: 0.048 | inactive: 0.066 | inactive: 0.029 | inactive: 0.019 | inactive: -0.167 | inactive: -0.03 | inactive: 0.007 | inactive: 0.01 | inactive: 0.012 | 
SLC2A13 (UniProt Q96QE2) | inactive: 0.205 | inactive: 0.118 | inactive: 0.162 | inactive: -0.038 | inactive: 0.111 | inactive: 0.233 | inactive: -0.028 | inactive: -0.105 | inactive: -0.041 | inactive: -0.049 |  | inactive: -0.231 | inactive: -0.088 | inactive: 0.02 | inactive: 0.059 | inactive: 0.044 | inactive: -0.057 |  | inactive: -0.077 | 
SLC19A2 (UniProt O60779) | inactive: -0.147 | inactive: 0.094 | inactive: -0.541 | inactive: 0.281 | inactive: -0.087 |  | inactive: 0.085 | inactive: 0.009 | inactive: -0.054 | inactive: 0.077 | inactive: 0.098 |  | inactive: -0.103 | inactive: 0.055 | inactive: 0.156 | inactive: -0.008 | inactive: -0.12 | inactive: -0.002 | inactive: 0.105 | inactive: 0.259

Rewritten as a markdown table: entries from further up.

| Target | log2 fold change (erlotinib) | log2 fold change [1] | log2 fold change [2] | log2 fold change [3] | log2 fold change [4] | log2 fold change [5] | log2 fold change [6] | log2 fold change [7] | log2 fold change [8] | log2 fold change [9] | log2 fold change (IRAK-1-4 Inhibitor I) | log2 fold change (ibrutinib) | log2 fold change [10] | log2 fold change (ralimetinib) | log2 fold change [11] | log2 fold change [12] | log2 fold change [13] | log2 fold change (pinometostat) | log2 fold change [14] | log2 fold change [15] |
| --- | --- | --- | --- | --- | --- | --- | --- | --- | --- | --- | --- | --- | --- | --- | --- | --- | --- | --- | --- | --- |
| SLC27A4 (UniProt Q6P1M0) | inactive: 0.039 | inactive: 0.013 | inactive: -0.023 | inactive: 0.032 | inactive: 0.082 | inactive: -0.02 | inactive: 0.002 | inactive: 0.061 | inactive: -0.017 | inactive: 0.062 | inactive: -0.042 | inactive: 0.022 | inactive: -0.034 | inactive: 0.003 | inactive: 0.072 | inactive: -0.11 | inactive: -0.044 | inactive: 0.039 | inactive: 0.104 |  |
| SLC12A5 (UniProt Q9H2X9) | inactive: 0.036 | inactive: 0.054 | active: -0.49 | inactive: 0.034 | inactive: 0.098 | inactive: -0.021 |  | inactive: -0.138 | inactive: 0.038 | inactive: 0.103 | inactive: -0.024 | inactive: -0.006 | inactive: -0.101 |  | inactive: 0.14 | inactive: 0.052 |  | inactive: -0.113 | inactive: 0.047 |  |
